At least one read-out could not be matched to a standard name with certainty.
System: NIH-MDR1-G185 cells
Experiment: Fluorescent Substrate Accumulation Assay (BODIPY-FL Taxol accumulation)
Format: cell-based
Conditions: MDR modulator 10 micromolar, 15 min preincubation; BODIPY-FL Taxol 500 nM, 40 min at 37° C.; fluorescence in presence / absence of modulator

Compound	Accumulation Index
COc1cc(C(=O)N2CCc3ccccc3C2C(=O)N(C)CCCN2c3ccccc3CCc3ccccc32)cc(OC)c1OC (centres unmarked) [Example 16, N-(3′,4′,5′-Trimethoxybenzoyl)-1,2,3,4-tetrahydro-1-isoquinoline carboxylic acid [1-desipramine] amide]	7
COc1cc(C(=O)N2CCc3ccccc3C2C(=O)N2CCN(C(c3ccccc3)c3ccccc3)CC2)cc(OC)c1OC (centres unmarked) [Example 13, N-(3′,4′,5′-Trimethoxybenzoyl)-1,2,3 4-tetrahydro-1-isoquinoline carboxylic acid [1-benzhydrylpiperazine] amide]	4

Source: patent publication US20020091120A1, “2-substituted heterocyclic compounds for treating multidrug resistance” (priority 2000, published 2002)
